Reference: PMC11900302 (2025)

Assay: general procedure: solution-phase peptide synthesis; HBTU/DIPEA

Substance | step yield (late stage modification step) [%] | step yield (coupling step) [%]
N-(N-[N^α-(L-glycyl)-L-glutaminyl]-L-prolyl)-4-morpholinyl-L-homoalanine | 99 | –
N-(N-[N^α-(L-glycyl)-L-glutaminyl]-L-prolyl)-4-thiomorpholinyl-L-homoalanine | 99 | –
N-(N-[N^α-(N-tert-butoxycarbonyl-L-glycyl)-N^δ-trityl-L-glutaminyl]-L-prolyl)-4-hydroxy-L-proline methyl ester | – | 87
N-Acetoxymethyl-N-(N-[N^α-(N-tert-butoxycarbonyl-L-glycyl)-N^δ-trityl-L-glutaminyl]-L-prolyl)-4-(2S-methyloxycarbonyl-1-pyrrolidinyl)-L-homoalanine methyl ester | – | 69
N-Acetoxymethyl-N-(N-[N^α-(N-tert-butoxycarbonyl-L-glycyl)-N^δ-trityl-L-glutaminyl]-L-prolyl)-4-(morpholinyl)-L-homoalanine methyl ester | – | 80
N-Acetoxymethyl-N-(N-[N^α-(N-tert-butoxycarbonyl-L-glycyl)-N^δ-trityl-L-glutaminyl]-L-prolyl)-4-(thiomorpholinyl)-L-homoalanine methyl ester | – | 73
N^α-(N-[N^α-(L-glycyl)-L-asparaginyl]-L-prolyl)-N^ω-tosyl-L-arginine | 99 | –
N^α-(N-[N^α-(L-glycyl)-L-glutaminyl]-L-prolyl)-4-hydroxy-L-proline | 99 | –
N^α-(N-[N^α-(L-glycyl)-L-glutaminyl]-L-prolyl)-N^ω-tosyl-L-arginine | 99 | –
N^α-(N-[N^α-(N-tert-butoxycarbonyl-L-glycyl)-N^γ-trityl-L-asparaginyl]-L-prolyl)-N^ω-tosyl-L-arginine methyl ester | – | 83
N^α-(N-[N^α-(N-tert-butoxycarbonyl-L-glycyl)-N^δ-trityl-L-glutaminyl]-L-prolyl)-N^ω-tosyl-L-arginine methyl ester | – | 87
